Source: PubChem BioAssay (NCATS)
Inconclusive results, whose numbers are uncertain, are shown with a selection of clear calls. For part of these data: A potency beside an inconclusive call is a rough fit, not a confirmed value. Active and inactive are the calls of the source. Calls follow the shape of the dose curve; as a rule, active = well fitted curve in the direction sought with a large enough effect; inconclusive = small, poorly fitted or top-dose-only effect, or another doubt; inactive = no such curve, though single readings can be large; an effect the other way counts as inactive or inconclusive.

What was measured:
[1] = Quantitative High-Throughput drug screen in 47 multiple myeloma cell lines against the NCATS MIPE library collection: KHM11_PLB cell viability assay (AID 1918962); conditions: KHM11 myeloma cell viability, CellTiter-Glo ATP luminescence, 48 h; viability, % of DMSO control: at 45.8 µM (top of the series); also: nearly all actives have a fitted effect of over 35% in size
Procedure, shortened: (§1)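 Inhibition of cell viability is measured here. Each line was plated at 500 cells per well, treated with MIPE 4.0 drugs, kept 48 hours at 37C, then assayed for ATP content by CellTiter-Glo luminescence.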

[2] = Quantitative High-Throughput drug screen in 47 multiple myeloma cell lines against the NCATS MIPE library collection: JIM3_ECACC cell viability assay (AID 1918963; also: nearly all actives have a fitted effect of over 35% in size); conditions: JIM3 myeloma viability, CellTiter-Glo ATP, 48 h; viability, percent of control: at 45.8 µM (top of the series)
Procedure, shortened: as §1

[3] = Quantitative High-Throughput drug screen in 47 multiple myeloma cell lines against the NCATS MIPE library collection: JIM1_ECACC cell viability assay (AID 1918964); conditions: JIM1 myeloma viability, CellTiter-Glo ATP luminescence, 48 h; viability (% of DMSO): at 45.8 µM (top of the series)
Procedure, shortened: (§2)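 Myeloma cell lines, 500 cells per well, exposed to MIPE 4.0 library compounds for 48 h at 37C, 5% CO2. Viability from ATP by CellTiter-Glo luminescence; normalised to DMSO (100%) and media-only (0%) wells.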

[4] = Quantitative High-Throughput drug screen in 47 multiple myeloma cell lines against the NCATS MIPE library collection: INA6_PLB cell viability assay (AID 1918965; also: nearly all actives have a fitted effect of over 55% in size); conditions: INA6 myeloma viability, CellTiter-Glo ATP luminescence, 48 h; viability (% of control): at 45.8 µM (top of the series)
Procedure, shortened: (§3)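 qHTS of the MIPE 4.0 collection: 500 myeloma cells/well, 48 h drug exposure at 37C in 5% CO2, then CellTiter-Glo for 5 min at room temperature before luminescence reading.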

[5] = Quantitative High-Throughput drug screen in 47 multiple myeloma cell lines against the NCATS MIPE library collection: JJN3_DSMZ cell viability assay (AID 1918966; also: nearly all actives have a fitted effect of over 50% in size); conditions: JJN3 myeloma cells viability, CellTiter-Glo ATP, 48 h; series mostly up to 45.8 µM
Procedure, shortened: as §2

[6] = Quantitative High-Throughput drug screen in 47 multiple myeloma cell lines against the NCATS MIPE library collection: Karpas25_ECACC cell viability assay (AID 1918968; also: nearly all actives have a fitted effect of over 35% in size); conditions: Karpas25 myeloma viability, CellTiter-Glo ATP, 48 h; series mostly up to 45.8 µM
Procedure, shortened: as §2

[7] = Quantitative High-Throughput drug screen in 47 multiple myeloma cell lines against the NCATS MIPE library collection: KMS27_JCRB cell viability assay (AID 1918970); conditions: KMS27 myeloma cells, CellTiter-Glo ATP viability, 48 h; viability (% of DMSO): at 45.8 µM (top of the series); also: nearly all actives have a fitted effect of over 30% in size
Procedure, shortened: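 Myeloma cells (500 per well) were exposed to MIPE 4.0 compounds for 48 h at 37 °C, 5% CO2; viability was read as ATP luminescence with CellTiter-Glo, normalized to DMSO-only (100%) and media-only (0%) wells.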

[8] = Quantitative High-Throughput drug screen in 47 multiple myeloma cell lines against the NCATS MIPE library collection: KMS12BM_JCRB cell viability assay (AID 1918971); conditions: KMS12BM myeloma viability, CellTiter-Glo ATP, 48 h; series mostly up to 45.8 µM; also: nearly all actives have a fitted effect of over 35% in size
Procedure, shortened: (§4)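 Approved and investigational drugs from MIPE 4.0 were added by pin tool to 500 cells per well. After 48 hours at 37C, ATP-based CellTiter-Glo luminescence indicated remaining viability.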

[9] = Quantitative High-Throughput drug screen in 47 multiple myeloma cell lines against the NCATS MIPE library collection: KMS20_JCRB cell viability assay (AID 1918973); conditions: CellTiter-Glo ATP, 48 h; viability (% of DMSO): at 45.8 µM (top of the series); also: nearly all actives have a fitted effect of over 45% in size
Procedure, shortened: as §2

[10] = Quantitative High-Throughput drug screen in 47 multiple myeloma cell lines against the NCATS MIPE library collection: KMS26_JCRB cell viability assay (AID 1918975); conditions: KMS26 myeloma cells viability, CellTiter-Glo ATP, 48 h; viability (% of DMSO): at 45.8 µM (top of the series); also: nearly all actives have a fitted effect of over 45% in size
Procedure, shortened: as §4

[11] = Quantitative High-Throughput drug screen in 47 multiple myeloma cell lines against the NCATS MIPE library collection: MMM1_PLB cell viability assay (AID 1918976); conditions: MMM1 myeloma cells viability, CellTiter-Glo, 48 h; series mostly up to 45.8 µM; also: nearly all actives have a fitted effect of over 35% in size
Procedure, shortened: (§5)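 Viability after 48 h drug exposure was measured as ATP-dependent luminescence. Cells, 500 per well, sat at 37 °C under 5% CO2; DMSO wells set 100%, media-only wells 0%.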

[12] = Quantitative High-Throughput drug screen in 47 multiple myeloma cell lines against the NCATS MIPE library collection: MOLP8_DSMZ cell viability assay (AID 1918977); conditions: MOLP8 myeloma viability, CellTiter-Glo ATP luminescence, 48 h; series mostly up to 45.8 µM; also: nearly all actives have a fitted effect of over 45% in size
Procedure, shortened: as §5

[13] = Quantitative High-Throughput drug screen in 47 multiple myeloma cell lines against the NCATS MIPE library collection: NCIH929_DSMZ cell viability assay (AID 1918978); conditions: NCI-H929 myeloma viability, CellTiter-Glo ATP, 48 h; viability, % of control: at 45.8 µM (top of the series); also: nearly all actives have a fitted effect of over 35% in size
Procedure, shortened: as §5

[14] = Quantitative High-Throughput drug screen in 47 multiple myeloma cell lines against the NCATS MIPE library collection: OCIMY1_PLB cell viability assay (AID 1918979); conditions: OCI-MY1 myeloma viability, CellTiter-Glo ATP, 48 h; series mostly up to 45.8 µM; also: nearly all actives have a fitted effect of over 35% in size
Procedure, shortened: as §5

[15] = Quantitative High-Throughput drug screen in 47 multiple myeloma cell lines against the NCATS MIPE library collection: MM1S_ATCC cell viability assay (AID 1918980); conditions: MM1S myeloma viability, CellTiter-Glo ATP luminescence, 48 h; series mostly up to 45.8 µM; also: nearly all actives have a fitted effect of over 45% in size
Procedure, shortened: as §5

[16] = Quantitative High-Throughput drug screen in 47 multiple myeloma cell lines against the NCATS MIPE library collection: MM1R_ATCC cell viability assay (AID 1918981); conditions: MM1R multiple myeloma cells, CellTiter-Glo viability, 48 h; series mostly up to 45.8 µM; also: nearly all actives have a fitted effect of over 35% in size
Procedure, shortened: as §5

[17] = Quantitative High-Throughput drug screen in 47 multiple myeloma cell lines against the NCATS MIPE library collection: KMS12PE_JCRB cell viability assay (AID 1918972); conditions: KMS12PE myeloma viability, CellTiter-Glo ATP, 48 h; viability: at 45.8 µM (top of the series); also: nearly all actives have a fitted effect of over 30% in size
Procedure, shortened: as §3

[18] = Quantitative High-Throughput drug screen in 47 multiple myeloma cell lines against the NCATS MIPE library collection: Karpas417_ECACC cell viability assay (AID 1918961); conditions: Karpas417 myeloma viability, CellTiter-Glo ATP luminescence, 48 h; viability (% of DMSO): at 45.8 µM (top of the series)
Procedure, shortened: as §3

[19] = Quantitative High-Throughput drug screen in 47 multiple myeloma cell lines against the NCATS MIPE library collection: KMS21BM_JCRB cell viability assay (AID 1918974); conditions: ATP luminescence, 48 h; viability: at 45.8 µM (top of the series)
Procedure, shortened: as §2

[20] = Quantitative High-Throughput drug screen in 47 multiple myeloma cell lines against the NCATS MIPE library collection: H1112_PLB cell viability assay (AID 1918967; also: nearly all actives have a fitted effect of over 30% in size); conditions: H1112 myeloma cells viability, ATP luminescence, 48 h; series mostly up to 45.8 µM
Procedure, shortened: as §2
Potency is read from the fitted curve at half-maximal effect.

Cc1nc(-c2ccc(-c3ccc(C(=O)N4CCc5cc6c(cc54)C4(CCN(C)CC4)CO6)cc3)c(C)c2)no1
inactive: Potency [2] | Potency [7] | Potency [8] | Potency [9] | Potency [13] | Potency [15] | Potency [16]
inconclusive: Potency [1] 26.4 µM [cytotoxic, single point] | Potency [3] 2.64 µM [cytotoxic, full curve, poor fit] | Potency [4] 0.0166 µM [cytotoxic, full curve, poor fit] | Potency [5] 0.0418 µM [cytotoxic, full curve, poor fit] | Potency [6] 0.0059 µM [rising, full curve, poor fit] | Potency [10] 3.32 µM [rising, partial curve, poor fit] | Potency [11] 0.0093 µM [rising, full curve, poor fit] | Potency [12] 6.62 µM [cytotoxic, partial curve, poor fit] | Potency [14] 0.132 µM [rising, full curve, poor fit]

CC(C)(C)c1cc(C=C(C#N)C#N)cc(Br)c1O
inconclusive: Potency [3] 20.9 µM [cytotoxic, partial curve, poor fit] | Potency [7] 23.5 µM [cytotoxic, partial curve, poor fit] | Potency [17] 16.6 µM [cytotoxic, partial curve] | Potency [10] 29.6 µM [cytotoxic, single point] | Potency [11] 18.7 µM [cytotoxic, partial curve, poor fit] | Potency [12] 33.2 µM [cytotoxic, partial curve, poor fit] | Potency [14] 33.2 µM [cytotoxic, single point] | Potency [15] 33.2 µM [cytotoxic, single point]
active: Potency [2] 16.6 µM | Potency [6] 3.72 µM | Potency [9] 13.2 µM

CC(C)(O)C=CC(=O)[C@](C)(O)[C@H]1[C@H](O)C[C@]2(C)[C@@H]3CC=C4[C@@H](C=C(O)C(=O)C4(C)C)[C@]3(C)C(=O)C[C@@]12C
active: Potency [18] 0.0083 µM | Potency [7] 0.0209 µM | Potency [9] 0.0187 µM | Potency [19] 0.0148 µM | Potency [11] 1.32 µM

CCN1C[C@]2(OC(=O)c3ccccc3NC(C)=O)CC[C@H](OC)[C@@]34[C@H]5CC6[C@@H](OC)C[C@](O)(C(C[C@@H]23)[C@@H]14)[C@@]5(O)[C@@H]6OC
inconclusive: Potency [3] 0.0264 µM [cytotoxic, full curve, poor fit] | Potency [5] 0.0066 µM [rising, full curve, poor fit] | Potency [7] 1.05 µM [cytotoxic, full curve, poor fit] | Potency [8] 0.0012 µM [rising, full curve] | Potency [9] 0.469 µM [cytotoxic, full curve, poor fit] | Potency [11] 0.0042 µM [rising, full curve] | Potency [12] 37.2 µM [rising, single point] | Potency [14] 23.5 µM [rising, single point]
inactive: Potency [2] | Potency [4] | Potency [6] | Potency [15] | Potency [16]

C[C@@H]1CC[C@H]2[C@@H](C)C(=O)O[C@@H]3O[C@@]4(C)CC[C@H]1[C@]32OO4
active: Potency [5] 0.0132 µM | Potency [12] 0.187 µM
inactive: Potency [7] | Potency [19] | Potency [14] | Potency [16]
inconclusive: Potency [1] 18.7 µM [cytotoxic, partial curve, poor fit] | Potency [3] 20.9 µM [rising, partial curve, poor fit] | Potency [20] 0.0033 µM [cytotoxic, full curve, poor fit] | Potency [8] 18.7 µM [cytotoxic, partial curve, poor fit] | Potency [9] 0.332 µM [rising, full curve, poor fit] | Potency [11] 2.35 µM [cytotoxic, partial curve, poor fit]

CC[C@H]1C=CC=CC[C@@H](C)[C@H](O)[C@@](C)(O)C(=O)[C@@H](C)[C@H](O)[C@@H](C)C(=O)[C@@H](C)[C@H](O)[C@@H](C)C=CC(=O)O[C@@H]2[C@@H](C)[C@H](CC1)O[C@]1(CC[C@H](C)[C@H](C[C@@H](C)O)O1)[C@H]2C
inconclusive: viability, % of DMSO control [1] 5.88% [cytotoxic] | viability, percent of control [2] 8.5% [cytotoxic] | Potency [7] 9.35 µM [cytotoxic, partial curve, poor fit] | Potency [8] 8.33 µM [cytotoxic, partial curve, poor fit] | Potency [17] 18.7 µM [cytotoxic, partial curve, poor fit] | Potency [9] 0.0042 µM [cytotoxic, full curve, poor fit] | Potency [12] 0.0021 µM [cytotoxic, full curve, poor fit] | Potency [14] 4.69 µM [cytotoxic, partial curve, poor fit] | Potency [15] 41.8 µM [cytotoxic, partial curve, poor fit] | Potency [16] 33.2 µM [cytotoxic, partial curve, poor fit]
active: Potency [11] 0.0059 µM | Potency [13] 0.0296 µM
